From the supplement of paper PMC12889115
Some of the results follow. These are raw signals, not scaled to a control.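 In the initial screen, polymyxin B was used at a concentration that permeabilizes Salmonella's outer membrane but not its inner membrane. Maximum growth was set by DMSO wells with or without polymyxin B. Since plates varied, data were ranked per plate, and compounds giving the lowest OD600 advanced as hits.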

Tested on: Salmonella enterica serovar Typhimurium SL1344
Assay: bacterial growth OD600 after 18 h with compound and polymyxin B; higher = more bacterial growth (less inhibition)
Details: 50 µM, Mueller-Hinton broth

COc1ccc(OC)c(Cc2nnc(CCC(=O)NC3C4CC5CC(C4)CC3C5)o2)c1 (stereo unspecified)
bacterial growth OD600 (polymyxin B 1 µg/mL): 0.78

COCCN1CCCC2(CCN(C(=O)c3ccc(Cl)s3)C2)C1=O (stereo unspecified)
bacterial growth OD600 (polymyxin B 1 µg/mL): 0.852

CCS(=O)(=O)c1ncc(CN2CCCC(c3cccc(C)c3)C2)n1CCOC (stereo unspecified)
bacterial growth OD600 (polymyxin B 1 µg/mL): 1.08

COc1cc(OC)c(OC)cc1CN1CCOc2ccc(C(O)CCc3ccccc3)cc2C1 (stereo unspecified)
bacterial growth OD600 (polymyxin B 0.75 µg/mL): 0.008

CCOC(=O)C1CCCCN1C(=O)CC1(c2cccc(C(F)(F)F)c2)CC(=O)N(C2CC2)C1=O (stereo unspecified)
bacterial growth OD600 (polymyxin B 0.75 µg/mL): 0.611

Cc1ccccc1-n1ncc(C(C)NC(=O)CSc2ncccn2)c1C (stereo unspecified)
bacterial growth OD600 (polymyxin B 1 µg/mL): 0.881

O=C(CC1(c2cccc(C(F)(F)F)c2)CC(=O)N(C2CC2)C1=O)N1CCCCC1c1nccs1 (stereo unspecified)
bacterial growth OD600 (polymyxin B 0.75 µg/mL): 0.676

CCCCN(C)C(=O)c1coc(COc2cccc(F)c2F)n1
bacterial growth OD600 (polymyxin B 1 µg/mL): 0.655

COc1ccc2cc(C(C)NC3CCN(c4ccc(C(=O)NCc5cccnc5)cc4)CC3)ccc2c1 (stereo unspecified)
bacterial growth OD600 (polymyxin B 0.75 µg/mL): 0.008

CCN1CCN(C2CCN(C(=O)C3CCN(c4nc(C)c5cc(C(C)C)ccc5n4)CC3)CC2)CC1
bacterial growth OD600 (polymyxin B 0.75 µg/mL): 0.784

CN(C)C(=O)CCC(=O)N1CCc2[nH]nc(-c3ccc(Cl)cc3)c2C1
bacterial growth OD600 (polymyxin B 0.75 µg/mL): 0.731

COc1ccc(OC)c(CN2CCC(n3nccc3NC(=O)C(C)(C)C)CC2)c1
bacterial growth OD600 (polymyxin B 1 µg/mL): 0.955

O=C(C1CCC1)N1CCC2(CCCN(CCCc3ccccc3)C2=O)C1 (stereo unspecified)
bacterial growth OD600 (polymyxin B 1 µg/mL): 0.778

COCc1noc(-c2ccc(NCCc3cccnc3)nc2)n1
bacterial growth OD600 (polymyxin B 1 µg/mL): 1.02

CN(Cc1cccnc1)c1ccc(C(=O)N2CCCCC2CCn2cccn2)cn1 (stereo unspecified)
bacterial growth OD600 (polymyxin B 1 µg/mL): 0.89

O[C@H]1CC[C@H](Nc2ccc(-c3nc(COc4ccccc4)no3)cn2)CC1
bacterial growth OD600 (polymyxin B 1 µg/mL): 0.79

Cc1nc(N2CCCCCCC2)ncc1C(C)NCc1cnn(C)c1C (stereo unspecified)
bacterial growth OD600 (polymyxin B 1 µg/mL): 0.1

Cn1ccnc1CN1CCN(c2ccc(-c3nc(C4CC4)no3)cn2)CC1
bacterial growth OD600 (polymyxin B 1 µg/mL): 1.09

CCOCCCNC(=O)C1CCN(c2nc(C)c3ccc(S(C)(=O)=O)cc3n2)CC1
bacterial growth OD600 (polymyxin B 0.75 µg/mL): 0.876

OCC1(Cc2ccccc2)CCCN(Cc2cnn(-c3cccc(Cl)c3)c2)C1 (stereo unspecified)
bacterial growth OD600 (polymyxin B 1 µg/mL): 0.644

CO[C@H]1[C@H](NC(=O)COc2ccccc2)c2ccccc2C12CCN(C(=O)CCC(F)(F)F)CC2
bacterial growth OD600 (polymyxin B 0.75 µg/mL): 0.673

COc1cc(CN2CCN(Cc3ccc(OC)c(C)c3C)C(CCO)C2)ccc1F (stereo unspecified)
bacterial growth OD600 (polymyxin B 1 µg/mL): 0.786

COc1ccc(NC(=O)CCC2CCCN(Cc3cccnc3)C2)cc1Cl (stereo unspecified)
bacterial growth OD600 (polymyxin B 1 µg/mL): 0.904

Cc1ccc(CN(C)Cc2nc(-c3ccccn3)no2)cc1
bacterial growth OD600 (polymyxin B 1 µg/mL): 0.884

COc1ccc(OC)c(CN2CCOc3ccc(C(O)Cc4ccccc4)cc3C2)c1 (stereo unspecified)
bacterial growth OD600 (polymyxin B 0.75 µg/mL): 0.808

COCc1ccc(C(=O)N2CCc3[nH]nc(-c4ccccc4F)c3C2)s1
bacterial growth OD600 (polymyxin B 0.75 µg/mL): 0.756

Cc1ccc(CN2CCOc3ccc(CN4CCN(c5ccc(F)cc5)CC4)cc3C2)o1
bacterial growth OD600 (polymyxin B 0.75 µg/mL): 0.845

COc1cccc(OCc2cc(C(=O)NCc3cccc(C)n3)n[nH]2)c1
bacterial growth OD600 (polymyxin B 0.75 µg/mL): 0.839

Cn1cc(CNCc2cccnc2Oc2ccccc2)c(-c2ccccc2)n1
bacterial growth OD600 (polymyxin B 1 µg/mL): 0.929

Cc1nc(N(C)C2CCCCC2)ncc1C(C)NCc1cccc(O)c1 (stereo unspecified)
bacterial growth OD600 (polymyxin B 0.75 µg/mL): 0.776

CCOC(=O)CCNC(=O)N1CCCC(CNC(=O)c2cccs2)C1 (stereo unspecified)
bacterial growth OD600 (polymyxin B 0.75 µg/mL): 0.834
